Our source for the log2 fold change values is the supplement of paper PMC10849652.

Sequences of proteins named here, by UniProt entry; tags and fusion partners are left off. A change or cut given only in a name is not applied to a line headed by its entry.
UniProt Q9BWK5: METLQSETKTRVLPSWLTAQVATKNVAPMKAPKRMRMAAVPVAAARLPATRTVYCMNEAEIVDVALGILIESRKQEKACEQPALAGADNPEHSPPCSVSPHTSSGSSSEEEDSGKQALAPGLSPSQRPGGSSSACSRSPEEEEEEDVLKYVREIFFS
UniProt O43739: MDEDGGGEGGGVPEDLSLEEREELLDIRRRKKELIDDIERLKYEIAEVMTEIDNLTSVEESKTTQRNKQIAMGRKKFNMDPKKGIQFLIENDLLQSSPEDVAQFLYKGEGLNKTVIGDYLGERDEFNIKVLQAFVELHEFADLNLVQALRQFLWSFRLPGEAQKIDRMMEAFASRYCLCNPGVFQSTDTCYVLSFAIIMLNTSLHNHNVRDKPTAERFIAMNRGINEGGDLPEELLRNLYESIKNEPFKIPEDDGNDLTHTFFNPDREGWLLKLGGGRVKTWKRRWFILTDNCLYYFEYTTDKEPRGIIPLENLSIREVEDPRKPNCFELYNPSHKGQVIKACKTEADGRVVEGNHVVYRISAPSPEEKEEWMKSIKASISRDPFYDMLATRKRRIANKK
UniProt Q96JK2, whole entry, looked up: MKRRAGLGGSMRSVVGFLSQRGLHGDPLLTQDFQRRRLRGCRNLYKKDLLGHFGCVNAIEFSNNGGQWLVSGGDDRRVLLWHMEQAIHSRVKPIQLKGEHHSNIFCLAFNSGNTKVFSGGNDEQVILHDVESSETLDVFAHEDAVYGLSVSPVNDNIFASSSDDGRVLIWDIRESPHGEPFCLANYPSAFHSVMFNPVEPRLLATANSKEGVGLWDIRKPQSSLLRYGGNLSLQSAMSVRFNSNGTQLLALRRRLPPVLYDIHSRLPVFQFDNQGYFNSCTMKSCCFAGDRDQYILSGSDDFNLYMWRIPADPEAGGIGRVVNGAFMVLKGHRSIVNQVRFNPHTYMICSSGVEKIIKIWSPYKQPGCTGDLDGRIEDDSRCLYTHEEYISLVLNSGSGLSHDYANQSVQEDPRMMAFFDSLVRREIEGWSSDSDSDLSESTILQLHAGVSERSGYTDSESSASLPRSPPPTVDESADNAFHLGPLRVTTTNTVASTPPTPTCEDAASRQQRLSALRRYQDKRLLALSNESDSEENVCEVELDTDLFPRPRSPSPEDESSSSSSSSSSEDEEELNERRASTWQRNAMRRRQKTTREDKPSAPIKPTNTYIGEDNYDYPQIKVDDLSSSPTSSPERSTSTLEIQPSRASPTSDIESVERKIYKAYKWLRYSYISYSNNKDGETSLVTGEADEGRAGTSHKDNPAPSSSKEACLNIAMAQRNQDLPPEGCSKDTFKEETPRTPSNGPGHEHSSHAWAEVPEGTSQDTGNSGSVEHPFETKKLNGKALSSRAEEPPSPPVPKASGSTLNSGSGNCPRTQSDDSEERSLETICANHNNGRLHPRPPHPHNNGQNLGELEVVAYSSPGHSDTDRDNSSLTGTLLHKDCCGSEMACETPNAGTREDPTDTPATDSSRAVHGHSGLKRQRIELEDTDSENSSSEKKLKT
UniProt Q96PD2: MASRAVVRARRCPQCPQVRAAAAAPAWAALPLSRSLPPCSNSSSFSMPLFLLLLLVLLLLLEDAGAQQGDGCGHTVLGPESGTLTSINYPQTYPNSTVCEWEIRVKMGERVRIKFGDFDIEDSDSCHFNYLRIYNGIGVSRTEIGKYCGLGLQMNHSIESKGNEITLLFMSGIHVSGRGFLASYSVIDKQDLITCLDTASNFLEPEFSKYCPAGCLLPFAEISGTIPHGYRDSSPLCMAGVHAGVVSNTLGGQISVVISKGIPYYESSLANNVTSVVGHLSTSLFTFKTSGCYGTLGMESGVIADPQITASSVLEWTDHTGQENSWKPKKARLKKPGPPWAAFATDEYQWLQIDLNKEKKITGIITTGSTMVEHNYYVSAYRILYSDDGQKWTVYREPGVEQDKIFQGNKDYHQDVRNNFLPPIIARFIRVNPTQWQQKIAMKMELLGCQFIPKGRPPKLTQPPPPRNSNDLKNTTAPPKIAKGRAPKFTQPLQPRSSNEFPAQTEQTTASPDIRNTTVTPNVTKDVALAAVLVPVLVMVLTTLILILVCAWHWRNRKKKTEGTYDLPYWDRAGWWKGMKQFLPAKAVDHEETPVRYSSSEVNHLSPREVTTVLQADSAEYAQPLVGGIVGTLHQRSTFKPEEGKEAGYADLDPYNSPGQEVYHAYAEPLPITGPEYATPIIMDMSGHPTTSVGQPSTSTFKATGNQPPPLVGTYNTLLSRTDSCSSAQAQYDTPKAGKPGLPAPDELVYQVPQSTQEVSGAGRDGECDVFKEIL
UniProt Q96SQ9: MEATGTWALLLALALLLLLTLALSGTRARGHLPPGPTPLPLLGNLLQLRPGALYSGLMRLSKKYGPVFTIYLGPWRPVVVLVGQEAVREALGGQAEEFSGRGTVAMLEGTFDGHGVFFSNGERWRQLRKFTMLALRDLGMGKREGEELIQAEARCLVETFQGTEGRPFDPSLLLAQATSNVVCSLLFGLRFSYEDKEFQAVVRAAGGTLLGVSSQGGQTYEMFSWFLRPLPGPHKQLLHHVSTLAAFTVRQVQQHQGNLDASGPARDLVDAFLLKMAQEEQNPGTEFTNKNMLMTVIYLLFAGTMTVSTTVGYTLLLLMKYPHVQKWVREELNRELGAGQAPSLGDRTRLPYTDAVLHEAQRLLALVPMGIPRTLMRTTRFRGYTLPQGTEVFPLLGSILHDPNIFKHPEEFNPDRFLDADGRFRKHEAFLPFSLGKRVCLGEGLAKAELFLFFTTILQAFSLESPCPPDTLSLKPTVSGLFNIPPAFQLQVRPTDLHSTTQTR
UniProt Q8N8Z6: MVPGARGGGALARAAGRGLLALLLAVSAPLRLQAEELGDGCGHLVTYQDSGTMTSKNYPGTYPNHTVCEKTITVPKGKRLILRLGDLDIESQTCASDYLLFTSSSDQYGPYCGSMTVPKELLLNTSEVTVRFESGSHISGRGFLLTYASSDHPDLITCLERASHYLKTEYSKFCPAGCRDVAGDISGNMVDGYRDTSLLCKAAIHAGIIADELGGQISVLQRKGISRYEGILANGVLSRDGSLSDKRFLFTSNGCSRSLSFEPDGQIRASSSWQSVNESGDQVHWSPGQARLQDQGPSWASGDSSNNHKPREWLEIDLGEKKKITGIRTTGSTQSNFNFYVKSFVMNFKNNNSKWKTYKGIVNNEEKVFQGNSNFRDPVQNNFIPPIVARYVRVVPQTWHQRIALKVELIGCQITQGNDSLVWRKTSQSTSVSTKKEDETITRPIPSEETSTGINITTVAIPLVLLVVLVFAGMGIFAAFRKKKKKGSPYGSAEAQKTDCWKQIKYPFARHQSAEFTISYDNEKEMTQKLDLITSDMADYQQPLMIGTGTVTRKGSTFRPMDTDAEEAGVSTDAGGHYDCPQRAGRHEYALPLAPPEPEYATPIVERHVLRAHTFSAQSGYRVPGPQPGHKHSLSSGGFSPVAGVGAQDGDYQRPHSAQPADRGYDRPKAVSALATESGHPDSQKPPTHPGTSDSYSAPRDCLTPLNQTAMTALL
UniProt Q9BSY9: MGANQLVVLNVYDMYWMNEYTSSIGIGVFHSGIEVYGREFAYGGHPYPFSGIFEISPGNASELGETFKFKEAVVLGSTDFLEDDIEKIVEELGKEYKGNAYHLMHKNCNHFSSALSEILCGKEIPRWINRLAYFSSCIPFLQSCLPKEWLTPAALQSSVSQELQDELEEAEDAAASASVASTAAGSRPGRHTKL
UniProt Q9NUL7: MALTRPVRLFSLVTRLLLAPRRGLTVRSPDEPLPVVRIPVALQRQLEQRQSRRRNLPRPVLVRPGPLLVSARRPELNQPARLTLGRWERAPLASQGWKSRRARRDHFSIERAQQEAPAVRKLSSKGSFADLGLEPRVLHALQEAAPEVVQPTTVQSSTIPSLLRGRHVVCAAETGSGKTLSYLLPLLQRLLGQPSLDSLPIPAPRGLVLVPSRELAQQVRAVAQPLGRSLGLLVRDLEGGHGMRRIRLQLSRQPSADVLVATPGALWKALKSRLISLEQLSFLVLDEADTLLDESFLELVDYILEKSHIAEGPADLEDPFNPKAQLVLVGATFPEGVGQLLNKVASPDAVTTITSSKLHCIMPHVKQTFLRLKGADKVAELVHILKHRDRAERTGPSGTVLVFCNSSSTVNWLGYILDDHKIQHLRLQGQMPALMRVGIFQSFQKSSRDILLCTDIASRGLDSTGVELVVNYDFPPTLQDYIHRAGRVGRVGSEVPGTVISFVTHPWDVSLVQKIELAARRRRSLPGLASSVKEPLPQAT
UniProt Q9H9R9: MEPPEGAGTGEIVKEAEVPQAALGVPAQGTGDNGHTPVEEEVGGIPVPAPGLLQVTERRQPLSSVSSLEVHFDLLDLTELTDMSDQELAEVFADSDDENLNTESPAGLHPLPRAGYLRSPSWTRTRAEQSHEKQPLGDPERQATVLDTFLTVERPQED
UniProt O75398: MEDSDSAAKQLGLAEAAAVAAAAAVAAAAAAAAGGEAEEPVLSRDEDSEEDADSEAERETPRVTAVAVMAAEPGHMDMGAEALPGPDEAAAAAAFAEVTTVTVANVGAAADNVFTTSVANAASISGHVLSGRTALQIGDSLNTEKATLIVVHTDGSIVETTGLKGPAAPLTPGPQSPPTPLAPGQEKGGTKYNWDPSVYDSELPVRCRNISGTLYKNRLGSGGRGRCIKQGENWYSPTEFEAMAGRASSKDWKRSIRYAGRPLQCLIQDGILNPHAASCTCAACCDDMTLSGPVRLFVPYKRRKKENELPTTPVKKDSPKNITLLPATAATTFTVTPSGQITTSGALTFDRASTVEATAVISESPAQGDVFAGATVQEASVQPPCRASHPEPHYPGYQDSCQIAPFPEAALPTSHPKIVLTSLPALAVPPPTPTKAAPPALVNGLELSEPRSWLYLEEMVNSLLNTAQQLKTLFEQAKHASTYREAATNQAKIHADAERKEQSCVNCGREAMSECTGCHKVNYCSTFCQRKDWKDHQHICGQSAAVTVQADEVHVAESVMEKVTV
UniProt P35638, whole entry, looked up: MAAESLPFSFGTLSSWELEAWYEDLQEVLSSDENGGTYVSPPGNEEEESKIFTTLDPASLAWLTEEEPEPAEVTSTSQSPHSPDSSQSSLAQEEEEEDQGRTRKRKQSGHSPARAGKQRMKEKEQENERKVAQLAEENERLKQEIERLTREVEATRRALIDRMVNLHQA
UniProt Q8IWE4: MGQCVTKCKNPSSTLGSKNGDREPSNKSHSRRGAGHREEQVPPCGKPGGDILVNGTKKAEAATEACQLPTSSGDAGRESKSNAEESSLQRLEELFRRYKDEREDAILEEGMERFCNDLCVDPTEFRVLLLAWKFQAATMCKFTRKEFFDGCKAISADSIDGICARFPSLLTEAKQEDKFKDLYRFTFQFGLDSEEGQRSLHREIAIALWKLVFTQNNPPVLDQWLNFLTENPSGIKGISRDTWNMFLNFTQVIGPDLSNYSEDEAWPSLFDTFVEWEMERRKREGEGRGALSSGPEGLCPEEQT
UniProt Q16531, whole entry, looked up: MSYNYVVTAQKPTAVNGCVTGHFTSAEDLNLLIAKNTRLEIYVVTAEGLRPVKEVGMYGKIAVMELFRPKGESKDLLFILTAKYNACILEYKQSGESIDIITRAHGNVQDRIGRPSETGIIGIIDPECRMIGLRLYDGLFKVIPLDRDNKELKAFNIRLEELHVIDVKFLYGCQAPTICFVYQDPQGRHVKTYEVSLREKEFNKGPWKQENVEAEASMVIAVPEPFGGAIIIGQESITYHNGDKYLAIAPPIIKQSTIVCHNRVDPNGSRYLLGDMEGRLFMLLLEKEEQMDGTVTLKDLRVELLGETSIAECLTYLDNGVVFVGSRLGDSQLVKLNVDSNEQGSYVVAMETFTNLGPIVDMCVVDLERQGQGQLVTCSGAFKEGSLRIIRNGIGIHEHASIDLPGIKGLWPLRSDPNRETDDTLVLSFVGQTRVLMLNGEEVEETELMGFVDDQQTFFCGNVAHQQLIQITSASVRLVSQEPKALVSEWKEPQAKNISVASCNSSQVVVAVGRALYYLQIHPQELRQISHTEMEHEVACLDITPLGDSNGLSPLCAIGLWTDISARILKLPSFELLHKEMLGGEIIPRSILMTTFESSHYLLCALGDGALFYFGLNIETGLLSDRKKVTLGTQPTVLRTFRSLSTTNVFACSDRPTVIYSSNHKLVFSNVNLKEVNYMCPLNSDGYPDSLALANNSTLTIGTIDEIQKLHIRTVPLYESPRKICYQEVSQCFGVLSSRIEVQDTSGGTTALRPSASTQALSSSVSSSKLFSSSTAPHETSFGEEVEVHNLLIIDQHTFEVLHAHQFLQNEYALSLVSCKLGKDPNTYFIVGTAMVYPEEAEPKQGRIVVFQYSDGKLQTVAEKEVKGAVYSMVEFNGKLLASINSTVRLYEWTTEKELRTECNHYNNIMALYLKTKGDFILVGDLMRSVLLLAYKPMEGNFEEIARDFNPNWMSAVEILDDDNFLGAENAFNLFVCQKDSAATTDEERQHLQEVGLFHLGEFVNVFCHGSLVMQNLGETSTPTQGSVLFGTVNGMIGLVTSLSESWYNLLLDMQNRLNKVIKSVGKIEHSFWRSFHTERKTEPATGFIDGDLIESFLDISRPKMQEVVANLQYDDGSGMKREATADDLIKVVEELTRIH

Some of the results follow.

Holding throughout (test): log2 fold change, soluble protein after heating vs DMSO (PISA); higher = thermal stabilisation; K562 lysate, 10 uM; active = over 0.2 and 3.5 SD of the protein, either way, in both replicates (recomputed)
Compound in assay [1]: c1ccc([C@@H]2C[C@H]2NC2CCNCC2)cc1
The method, boiled down: (§1)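 Dounce homogenisation of K562 pellets in PBS pH 7.4 with 1 mM MgCl2 produced a crude extract, used at 1 mg/mL protein. Exposure to 10 μM compound lasted 30 min, and aliquots were then heated for 3 min across 48°C-58°C, pooled and brought to 0.5% NP-40 at 4°C. The supernatant after 21,000xg for 90 min was quantified by TMTpro 16plex LC-MS/MS with channel sums equalised. Duplicate values are given as log-two fold change in thermal stability relative to solvent controls.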

Compound in assay [2]: CC1=C2C(=CC=C1)N=C(N(C2=O)C3=CC=CC=C3C)CN4C=NC5=C(N=CN=C54)N
The method, boiled down: as §1

Compound in assay [3]: Cc1sc2c(c1C)C(c1ccc(Cl)cc1)=N[C@@H](CC(=O)OC(C)(C)C)c1nnc(C)n1-2
In a few lines: as §1

Compound in assay [4]: C1=CC=C(C=C1)[C@H](COC2=CC3=C(C=C2)NC(=O)N3)NC(=O)C4=CC=CN(C4=O)CC5=CC(=C(C=C5)F)F
The method, boiled down: as §1

Compound in assay [5]: CC1=C(SC2=C1C(=N[C@H](C3=NN=C(N32)C)CC(=O)N)C4=CC=C(C=C4)Cl)C
The method, boiled down: as §1

In the case of DCLRE1C (UniProt Q96SD1), the log2 fold change in assay [1] is inactive: -0.033.
Regarding DEPDC1B (UniProt Q8WUY9), the log2 fold change was inactive: 0.082 in assay [2] and inactive: 0.023 in assay [3].
As to DDX11 (UniProt Q96FC9), the log2 fold change in assay [2] was inactive: 0.097; in assay [3] it was inactive: -0.028; in assay [1], inactive: 0.156.
For the target CYREN isoform 4 (UniProt Q9BWK5), the log2 fold change was inactive: 0.045 in assay [3] and inactive: -0.089 in assay [1].
For DENND5B isoform 2 (UniProt Q6ZUT9), the log2 fold change in assay [4] is inactive: -0.06; in assay [5], inactive: 0.075; in assay [3] it was inactive: -0.246; in assay [1], inactive: -0.136.
Turning to DDX39B (UniProt F6R6M7), the log2 fold change in assay [1] is inactive: 0.001.
Regarding DDX51 (UniProt Q8N8A6), the log2 fold change is inactive: 0.065 in assay [3] and inactive: 0.034 in assay [1].
CYTH3 (UniProt O43739): the log2 fold change in assay [1] was inactive: 0.006.
As to DCUN1D1 (UniProt C9JVE2), the log2 fold change is inactive: -0.043 in assay [4], inactive: 0.022 in assay [5] and inactive: -0.016 in assay [3].
In the case of DEUP1 (UniProt Q05D60), the log2 fold change in assay [4] was inactive: -0.072; in assay [5], inactive: -0.069; in assay [3] it was inactive: -0.198.
For the target DCAF5 (UniProt Q96JK2), the log2 fold change in assay [2] was inactive: -0.206; in assay [3], inactive: 0.087.
DCBLD2 isoform 2 (UniProt Q96PD2): the results for the log2 fold change in assay [3] and in assay [1] were inactive: 0.041 and inactive: 0.068, respectively.
Take CYTH2 (UniProt Q99418): the log2 fold change in assay [4] was inactive: 0.021; in assay [5], inactive: -0.042; in assay [3] it was inactive: -0.002; in assay [1] it was inactive: -0.006.
CYP2S1 isoform 2 (UniProt Q96SQ9): the log2 fold change in assay [2] was inactive: 0.033; in assay [3] it was inactive: -0.123.
With DDIT4 (UniProt Q9NX09), in assay [2], the log2 fold change is inactive: 0.004.
As to DCBLD1 (UniProt Q8N8Z6), the results for the log2 fold change in assay [3] and in assay [1] were inactive: 0.112 and inactive: -0.062, respectively.
Take CYP2R1 (UniProt Q6VVX0): the log2 fold change in assay [2] was inactive: -0.001; in assay [3] it was inactive: -0.076.
For DESI2 (UniProt Q9BSY9), the log2 fold change was inactive: -0.142 in assay [2] and inactive: -0.038 in assay [1].
On to DAPK1 isoform 3 (UniProt P53355), for which the log2 fold change in assay [2] was inactive: 0.035; in assay [3] it was inactive: 0.013; in assay [1], inactive: 0.039.
For DDX28 (UniProt Q9NUL7), the log2 fold change in assay [4] was inactive: -0.14; in assay [5], inactive: 0.116; in assay [3], inactive: 0.019; in assay [1], inactive: -0.062.
For DAPK3 (UniProt O43293), the log2 fold change is inactive: -0.114 in assay [2] and inactive: -0.194 in assay [1].
Consider DBNDD1 isoform 3 (UniProt Q9H9R9), for which the log2 fold change in assay [3] is inactive: -0.183; in assay [1] it was inactive: -0.044.
As for CYP4V2 (UniProt Q6ZWL3), the log2 fold change was inactive: -0.119 in assay [4], inactive: 0.188 in assay [5] and inactive: 0.035 in assay [3].
Turning to DCAKD (UniProt Q8WVC6), the log2 fold change in assay [2] was inactive: -0.062.
For the target CYTH1 (UniProt Q15438), the log2 fold change in assay [4] is inactive: -0.003; in assay [5], inactive: 0.119; in assay [1] it was inactive: -0.157.
For DENND5A (UniProt Q6IQ26), in assay [3], the log2 fold change was inactive: 0.027.
For the target DDR1 isoform 5 (UniProt Q08345), the log2 fold change in assay [4] is inactive: -0.1; in assay [5] it was inactive: 0.057; in assay [3] it was inactive: -0.09; in assay [1], inactive: 0.135.
Turning to DEAF1 (UniProt O75398), in assay [3], the log2 fold change is inactive: 0.02.
As for DAPK2 isoform 2 (UniProt Q9UIK4), the log2 fold change in assay [2] is inactive: -0.437.
Take DALRD3 (UniProt Q5D0E6): the log2 fold change is inactive: 0.193 in assay [2] and inactive: 0.137 in assay [1].
In the case of DDIT3 isoform 2 (UniProt P35638), the log2 fold change in assay [2] was inactive: -0.098.
With DDX60L (UniProt Q5H9U9), in assay [3], the log2 fold change was inactive: -0.086.
As for DCUN1D3 (UniProt Q8IWE4), the log2 fold change in assay [4] was inactive: 0.008; in assay [5], inactive: 0.031; in assay [3], inactive: 0.035; in assay [1], inactive: -0.23.
As for DDB1 isoform 2 (UniProt Q16531), the log2 fold change in assay [1] was inactive: -0.577.
For DDAH1 (UniProt O94760), the log2 fold change in assay [2] was inactive: 0.005; in assay [3], inactive: 0.15; in assay [1] it was inactive: -0.072.
Turning to DCTN1 isoform 4 (UniProt Q14203), the results for the log2 fold change in assay [2], in assay [3] and in assay [1] were inactive: 0.013, inactive: -0.13 and inactive: -0.452, respectively.
Turning to CYP4F11 (UniProt Q9HBI6), the log2 fold change is inactive: -0.198 in assay [3] and inactive: -0.247 in assay [1].
